The record followed here is the supplement of paper PMC4749390.

Counter-ions that a name gives are not always drawn. Some of the results follow. This data set is noisy: repeats of one test often differ as much as different tests do.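 JEG3 cells stably carry tetracycline-induced wild-type human LRH-1, a heavily sumoylated nuclear receptor. APOC3 and MUC1 are SUMO-sensitive transcripts, raised by SUMO-less LRH-1 or UBC9 knockdown, measured by RT-qPCR against TBP and DMSO controls. A robust Z-score above +2 or below -2 marked a primary hit before toxicity and TBP filtering.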

The assay relates to JEG3 expressing hLRH-1. Briefly: MUC1 transcript change (ddCt vs TBP and DMSO), Z-score over library; higher = higher MUC1 expression. The following applies: 10 µM; time (hr): 24.
As for `Cc1c2oc3c(C)ccc(C(=O)OC(C)C4NC(=O)C(C(C)C)N(C)C(=O)CN(C)C(=O)C5CCCN5C(=O)C(C(C)C)NC4=O)c3nc-2c(C(=O)OC(C)C2NC(=O)C(C(C)C)N(C)C(=O)CN(C)C(=O)C3CCCN3C(=O)C(C(C)C)NC2=O)c(N)c1=O` (stereo not drawn) [dactinomycin], the “MUC1 transcript change (Z-score)” value stood at 6.13.

With `CC(C)(C#N)c1cc(Cn2cncn2)cc(C(C)(C)C#N)c1` [anastrozole], the “MUC1 transcript change (Z-score)” value was determined as 0.503.

For the molecule `O=NN(CCCl)C(=O)NCCCl` [carmustine], the “MUC1 transcript change (Z-score)” value came out at 0.968.

Turning to `Cc1ncc(CO)c(CO)c1O` [pyridoxine], the “MUC1 transcript change (Z-score)” value is 0.52.

Consider `CC(=O)O[C@]1(C(C)=O)CCC2C3C[C@H](C)C4=CC(=O)CC[C@]4(C)C3CC[C@@]21C` (stereo partly drawn) [medroxyprogesterone acetate], for which the “MUC1 transcript change (Z-score)” value amounted to 0.615.

For the molecule `CN1CC(=O)N2[C@H](c3ccc4c(c3)OCO4)c3[nH]c4ccccc4c3C[C@@H]2C1=O` [tadalafil], the “MUC1 transcript change (Z-score)” value was determined as 1.27.

Take `N[C@@H](CCC(=O)N[C@@H](CS)C(=O)NCC(=O)O)C(=O)O` [glutathione]: the “MUC1 transcript change (Z-score)” value is -0.0552.

Take `CCN(CC)C(=O)c1cccc(C)c1` [deet]: the “MUC1 transcript change (Z-score)” value is -0.219.

For the molecule `CCN(CC)C(=O)c1cccnc1` [nikethamide], the “MUC1 transcript change (Z-score)” value is -3.15.

With `CCCCCCCCCC(=O)N[C@@H](Cc1c[nH]c2ccccc12)C(=O)N[C@@H](CC(N)=O)C(=O)N[C@@H](CC(=O)O)C(=O)N[C@@H]1C(=O)NCC(=O)N[C@@H](CCCN)C(=O)N[C@@H](CC(=O)O)C(=O)N[C@H](C)C(=O)N[C@@H](CC(=O)O)C(=O)NCC(=O)N[C@H](CO)C(=O)NC([C@@H](C)CC(=O)O)C(=O)N[C@@H](CC(=O)c2ccccc2N)C(=O)O[C@H]1C` (stereo partly drawn) [daptomycin (5 millimolar/dmso)], the “MUC1 transcript change (Z-score)” value was 0.497.

`CC(=O)N(CC(O)CN(C(C)=O)c1c(I)c(C(=O)NCC(O)CO)c(I)c(C(=O)NCC(O)CO)c1I)c1c(I)c(C(=O)NCC(O)CO)c(I)c(C(=O)NCC(O)CO)c1I` (stereo not drawn) [iodixanol]: the “MUC1 transcript change (Z-score)” value was -0.485.

Consider `NC(=O)N1c2ccccc2C=Cc2ccccc21` [Carbamazepine], for which the “MUC1 transcript change (Z-score)” value amounted to 0.481.

For `CC(O)C(=O)O` (stereo not drawn) [ammonium lactate], the “MUC1 transcript change (Z-score)” value is 0.164.

Consider `CC(C)(C)c1ccc(C(O)CCCN2CCC(C(O)(c3ccccc3)c3ccccc3)CC2)cc1` (stereo not drawn) [terfenadine], for which the “MUC1 transcript change (Z-score)” value is -0.21.

Turning to `N[C@@H](Cc1cc(I)c(Oc2cc(I)c(O)c(I)c2)c(I)c1)C(=O)O` [thyroxine], the “MUC1 transcript change (Z-score)” value was found to be 0.342.

With `Oc1nc2ccccc2n1CCCN1CCC(n2c(O)nc3cc(Cl)ccc32)CC1` [Domperidone], the “MUC1 transcript change (Z-score)” value is 0.814.

`CN1Cc2c(N)cccc2C(c2ccccc2)C1` (stereo not drawn) [Nomifensine maleate]: the “MUC1 transcript change (Z-score)” value stood at 0.702.

As to `Cc1cc(CC(=O)O)n(C)c1C(=O)c1ccc(Cl)cc1` [zomepirac sodium], the “MUC1 transcript change (Z-score)” value was -0.34.

On to `Nc1ccc(C(=O)O)cc1` [potassium p-aminobenzoate], for which the “MUC1 transcript change (Z-score)” value is 1.24.

Take `Cc1cnc(NC(=O)C2=C(O)c3ccccc3S(=O)(=O)N2C)s1` [meloxicam]: the “MUC1 transcript change (Z-score)” value came to 0.823.

Take `CC(=O)O[C@@]12CO[C@@H]1C[C@H](O)[C@@]1(C)C(=O)[C@H](O)C3=C(C)[C@@H](OC(=O)[C@H](O)[C@@H](NC(=O)OC(C)(C)C)c4ccccc4)C[C@@](O)([C@@H](OC(=O)c4ccccc4)[C@H]21)C3(C)C` [docetaxel]: the “MUC1 transcript change (Z-score)” value is -0.909.

As to `CCCCC(=O)O[C@H]1CC[C@H]2[C@@H]3CCc4cc(O)ccc4[C@H]3CC[C@]12C` [estradiol valerate], the “MUC1 transcript change (Z-score)” value turned out to be 0.135.

As for `O=C(OC[C@H]1O[C@@H](OC(=O)c2cc(O)c(O)c(OC(=O)c3cc(O)c(O)c(O)c3)c2)[C@H](OC(=O)c2cc(O)c(O)c(OC(=O)c3cc(O)c(O)c(O)c3)c2)[C@@H](OC(=O)c2cc(O)c(O)c(OC(=O)c3cc(O)c(O)c(O)c3)c2)[C@@H]1OC(=O)c1cc(O)c(O)c(OC(=O)c2cc(O)c(O)c(O)c2)c1)c1cc(O)c(O)c(OC(=O)c2cc(O)c(O)c(O)c2)c1` [tannic acid], the “MUC1 transcript change (Z-score)” value is 4.32.

With `Cc1ccc(Nc2c(F)cccc2Cl)c(CC(=O)O)c1` [lumiracoxib], the “MUC1 transcript change (Z-score)” value is -0.166.

Regarding `CCOc1ccc2ccccc2c1NC(=O)[C@@H]1C(=O)N2C(C(=O)O)C(C)(C)S[C@H]12` (stereo partly drawn) [nafcillin sodium], the “MUC1 transcript change (Z-score)” value is -0.507.

Consider `CC(CNCCc1ccc(O)c(O)c1)Cc1cccc(O)c1` (stereo not drawn) [dobutamine hydrochloride], for which the “MUC1 transcript change (Z-score)” value is -0.186.

Regarding `Cc1ccc2c(Br)cc(Br)c(OC(=O)c3ccccc3)c2n1` [broxaldine], the “MUC1 transcript change (Z-score)” value amounted to 1.91.

As to `Cc1cccc(C(=O)O)c1O` [hydroxytoluic acid], the “MUC1 transcript change (Z-score)” value was -0.582.

`CN(C/C=C/C#CC(C)(C)C)Cc1cccc2ccccc12` [terbinafine hydrochloride]: the “MUC1 transcript change (Z-score)” value is -0.302.

`O=C1NC(=O)C(c2ccccc2)(c2ccccc2)N1` [Phenytoin sodium]: the “MUC1 transcript change (Z-score)” value was -0.192.

For `CCN(Cc1ccncc1)C(=O)C(CO)c1ccccc1` (stereo not drawn) [Tropicamide], the “MUC1 transcript change (Z-score)” value was -0.144.

With `COc1cc(O)cc(C(=O)c2ccccc2)c1S(=O)(=O)O` [sulisobenzone], the “MUC1 transcript change (Z-score)” value is 0.0942.

For the molecule `COc1cccc2c1C(=O)c1c(O)c3c(c(O)c1C2=O)C[C@@](O)(C(=O)CO)C[C@@H]3O[C@H]1C[C@H](N)[C@H](O)[C@H](C)O1` [doxorubicin], the “MUC1 transcript change (Z-score)” value came to 5.38.

As for `CC1(C)S[C@@H]2[C@H](NC(=O)[C@H](N)c3ccc(O)cc3)C(=O)N2[C@H]1C(=O)O` [amoxicillin], the “MUC1 transcript change (Z-score)” value was 0.59.

For the molecule `COc1c2occc2cc2ccc(=O)oc12` [methoxsalen], the “MUC1 transcript change (Z-score)” value is -1.19.

On to `COc1nc(N)nc2c1ncn2C1O[C@H](CO)[C@@H](O)[C@@H]1O` (stereo partly drawn) [nelarabin], for which the “MUC1 transcript change (Z-score)” value was -0.371.

Regarding `CC1CCc2cc(F)cc3c(=O)c(C(=O)O)cn1c23` (stereo not drawn) [flumequine], the “MUC1 transcript change (Z-score)” value is -0.233.

For the molecule `C[C@]12CCC3c4ccc(O)cc4CCC3C1CC[C@@H]2O` (stereo partly drawn) [estradiol], the “MUC1 transcript change (Z-score)” value was 0.103.

`NC(=O)C(c1ccccc1)(c1ccccc1)C1CCN(CCc2ccc3c(c2)CCO3)C1` (stereo not drawn) [darifenacin hydrobromide]: the “MUC1 transcript change (Z-score)” value is 0.538.

Consider `c1ccc2c(c1)CCCC2C1=NCCN1` (stereo not drawn) [tetrahydrozoline hydrochloride], for which the “MUC1 transcript change (Z-score)” value was -0.302.

In the case of `CNCCCN1c2ccccc2CCc2ccccc21` [Desipramine hydrochloride], the “MUC1 transcript change (Z-score)” value is -0.269.

With `CCO/C(O)=C1\C(C)=NC(C)=C(C(=O)OC)C1c1cccc([N+](=O)[O-])c1` (stereo not drawn) [Nitrendipine], the “MUC1 transcript change (Z-score)” value was -0.589.

Consider `CC(C(=O)O)c1ccc(-c2ccccc2)c(F)c1` (stereo not drawn) [flurbiprofen], for which the “MUC1 transcript change (Z-score)” value is 0.298.

With `CCCCCCOc1ccccc1C(N)=O` [exalamide], the “MUC1 transcript change (Z-score)” value is -0.466.

Take `CO/N=C(\C(=O)N[C@@H]1C(=O)N2C(C(=O)OCOC(=O)C(C)(C)C)=C(/C=C\c3scnc3C)CS[C@H]12)c1csc(N)n1` [cefditorin pivoxil]: the “MUC1 transcript change (Z-score)” value was -0.811.

Consider `Cc1nc(COP(=O)(O)O)cc2c1[O][Mn][O]c1c(cc(COP(=O)(O)O)nc1C)CN(CC(=O)O)CCN(CC(=O)O)C2` [mangafodipir trisodium], for which the “MUC1 transcript change (Z-score)” value is 0.277.

Consider `CN1CCN(C2=Nc3ccccc3Oc3ccc(Cl)cc32)CC1` [Loxapine succinate], for which the “MUC1 transcript change (Z-score)” value turned out to be 0.646.

For `COc1ccc(CN2CCN(C(c3ccc(F)cc3)c3ccc(F)cc3)CC2)c(OC)c1OC` [lomerizine hydrochloride], the “MUC1 transcript change (Z-score)” value is -0.953.

Turning to `CC(=O)Nc1ccccc1` [acetanilide], the “MUC1 transcript change (Z-score)” value turned out to be 0.733.

Regarding `COc1ccc(C2Sc3ccccc3N(CCN(C)C)C(=O)C2OC(C)=O)cc1` (stereo not drawn) [diltiazem hydrochloride], the “MUC1 transcript change (Z-score)” value was determined as 0.355.

Take `CN1CCC[C@@H]1CCO[C@](C)(c1ccccc1)c1ccc(Cl)cc1` [clemastine]: the “MUC1 transcript change (Z-score)” value was -0.584.

With `C#C[C@]1(O)CCC2C3CCc4cc(O)ccc4C3CC[C@@]21C` (stereo partly drawn) [ethinyl estradiol], the “MUC1 transcript change (Z-score)” value is -0.639.

On to `CC1(C)[C@@H]2CC[C@@]1(C)C(=O)C2` [camphor (1r)], for which the “MUC1 transcript change (Z-score)” value was -0.41.

Take `O=c1[nH]c(=O)n(C2C[C@@H](O)[C@@H](CO)O2)cc1F` (stereo partly drawn) [floxuridine]: the “MUC1 transcript change (Z-score)” value stood at 0.253.

`O=C1CC[C@@H](C(=O)O)N1` [pidolic acid]: the “MUC1 transcript change (Z-score)” value was -0.00148.

`CCOc1ccccc1C(N)=O` [ethenzamide]: the “MUC1 transcript change (Z-score)” value was -0.812.

Turning to `CN/C(=C\[N+](=O)[O-])NCCSCc1ccc(CN(C)C)o1` [Ranitidine hydrochloride], the “MUC1 transcript change (Z-score)” value was found to be 0.378.

Consider `CC1(C)S[C@@H]2[C@H](NC(=O)[C@H](NC(=O)N3CCNC3=O)c3ccccc3)C(=O)N2[C@H]1C(=O)O` [azlocillin sodium], for which the “MUC1 transcript change (Z-score)” value is 0.339.

With `O=C(O)c1cn(C2CC2)c2cc(N3CCNCC3)c(F)cc2c1=O` [ciprofloxacin], the “MUC1 transcript change (Z-score)” value is -0.626.

As to `CCCCCCCCCc1ccc(OCCOCCOCCOCCOCCOCCOCCOCCOCCO)cc1` [nonoxynol-9], the “MUC1 transcript change (Z-score)” value was -0.705.

`Nc1nc(/C(=C/CC(=O)O)C(=O)N[C@@H]2C(=O)N3C(C(=O)O)=CCS[C@H]23)cs1` [ceftibuten]: the “MUC1 transcript change (Z-score)” value turned out to be 0.385.

In the case of `CC(NCCC(c1ccccc1)c1ccccc1)c1ccccc1` (stereo not drawn) [fendiline hydrochloride], the “MUC1 transcript change (Z-score)” value amounted to 0.504.

Turning to `CN1C(C)(C)CCCC1(C)C` [pempidine tartrate], the “MUC1 transcript change (Z-score)” value worked out at 0.362.

Consider `NC(N)=NCCCC(N)C(=O)O` (stereo not drawn) [arginine hydrochloride], for which the “MUC1 transcript change (Z-score)” value was 0.793.

As for `C[N+](C)(C)CCCCCC[N+](C)(C)C` [Hexamethonium dichloride], the “MUC1 transcript change (Z-score)” value is 0.445.

`CC(S)C(=O)NCC(=O)O` (stereo not drawn) [tiopronin]: the “MUC1 transcript change (Z-score)” value was 0.236.

Regarding `O=C(O)CCCCCCCC(=O)O` [azelaic acid], the “MUC1 transcript change (Z-score)” value was found to be 0.0729.

For `CNC[C@H](O)c1ccc(O)c(O)c1` [adrenaline bitartrate], the “MUC1 transcript change (Z-score)” value was 0.827.

Consider `CC(=O)NS(=O)(=O)c1ccc(NC(=O)c2ccccc2C(=O)O)cc1` [phthalylsulfacetamide], for which the “MUC1 transcript change (Z-score)” value amounted to 0.938.

Turning to `CCN(CC)C(C)CN1c2ccccc2Sc2ccccc21` (stereo not drawn) [ethopropazine hydrochloride], the “MUC1 transcript change (Z-score)” value is -0.0192.

On to `C[N+](C)(C)CCO` [choline chloride], for which the “MUC1 transcript change (Z-score)” value came to 0.355.

`Oc1c(I)cc(Cl)c2cccnc12` [clioquinol]: the “MUC1 transcript change (Z-score)” value turned out to be 0.422.

Regarding `NC[C@H]1O[C@H](O[C@H]2[C@H](O)[C@@H](O[C@H]3O[C@H](CO)[C@@H](O)[C@H](N)[C@H]3O)[C@H](N)C[C@@H]2N)[C@H](N)[C@@H](O)[C@@H]1O` [becanamycin sulfate], the “MUC1 transcript change (Z-score)” value came out at 0.49.
